# “And” between values parts separate entries of the source, which are not always exact repeats. Identical values can stand only once. Further values from the same series stand in other lists.
# System: telemetered dogs
# Test: Conscious dog telemetry (QRS amplitude and other cardiovascular parameters, tolerability)
# Details: dog, 0.85 mg/kg
# [1] = 0.85 mg/kg 0.5h infusion, 0.75 h
# [2] = 0.85 mg/kg 0.5h infusion, 1.5 h
# [3] = 0.85 mg/kg 0.5h infusion, -0.75 h
# [4] = 0.85 mg/kg 0.5h infusion, -1.25 h
compound,measurement,setting,value
CN(CCO)CCC(CSc1ccccc1)Nc1ccc(S(=O)(=O)NC(=O)c2ccc(N3CCC(C(O)c4ccccc4-c4ccc(Cl)cc4)CC3)cc2)cc1S(=O)(=O)C(F)(F)F (stereo not drawn) [AZD4320],Left ventricular -dP/dt (mmHg/s),[1],5279 mmHg/s
same,QRS amplitude (% baseline),[1],96 % baseline
same,Systolic blood pressure (mmHg),[1],165 mmHg and 177 mmHg
same,ECG PR interval,"0.85 mg/kg 0.5h infusion, 1 h",85 ms and 86 ms
same,ECG QRS duration,"0.85 mg/kg 0.5h infusion, 1 h",36 ms
same,Left ventricular -dP/dt (mmHg/s),"0.85 mg/kg 0.5h infusion, 1 h",4595 mmHg/s
same,QRS amplitude (% baseline),"0.85 mg/kg 0.5h infusion, 1 h",98 % baseline
same,Systolic blood pressure (mmHg),"0.85 mg/kg 0.5h infusion, 1 h",150 mmHg and 149 mmHg
same,ECG PR interval,[2],100 ms and 86 ms
same,ECG QRS duration,[2],35 ms
same,Left ventricular -dP/dt (mmHg/s),[2],2368 mmHg/s and 4415 mmHg/s
same,QRS amplitude (% baseline),[2],89 % baseline and 91 % baseline
same,Systolic blood pressure (mmHg),[2],130 mmHg and 149 mmHg
same,ECG PR interval,"0.85 mg/kg 0.5h infusion, 2 h",97 ms and 79 ms
same,ECG QRS duration,"0.85 mg/kg 0.5h infusion, 2 h",33 ms
same,Left ventricular -dP/dt (mmHg/s),"0.85 mg/kg 0.5h infusion, 2 h",2609 mmHg/s and 4822 mmHg/s
same,QRS amplitude (% baseline),"0.85 mg/kg 0.5h infusion, 2 h",79 % baseline and 80 % baseline
same,Systolic blood pressure (mmHg),"0.85 mg/kg 0.5h infusion, 2 h",142 mmHg
same,ECG PR interval,"0.85 mg/kg 0.5h infusion, 3 h",101 ms
same,ECG QRS duration,"0.85 mg/kg 0.5h infusion, 3 h",36 ms and 31 ms
same,QRS amplitude (% baseline),"0.85 mg/kg 0.5h infusion, 3 h",51 % baseline and 56 % baseline
same,Systolic blood pressure (mmHg),"0.85 mg/kg 0.5h infusion, 3 h",138 mmHg and 167 mmHg
same,ECG PR interval,"0.85 mg/kg 0.5h infusion, 4 h",82 ms and 77 ms
same,ECG QRS duration,"0.85 mg/kg 0.5h infusion, 4 h",35 ms and 32 ms
same,QRS amplitude (% baseline),"0.85 mg/kg 0.5h infusion, 4 h",34 % baseline and 52 % baseline
same,Systolic blood pressure (mmHg),"0.85 mg/kg 0.5h infusion, 4 h",106 mmHg and 150 mmHg
same,ECG PR interval,"0.85 mg/kg 0.5h infusion, 6 h",69 ms and 58 ms
same,ECG QRS duration,"0.85 mg/kg 0.5h infusion, 6 h",36 ms and 34 ms
same,Left ventricular -dP/dt (mmHg/s),"0.85 mg/kg 0.5h infusion, 6 h",2044 mmHg/s and 3661 mmHg/s
same,QRS amplitude (% baseline),"0.85 mg/kg 0.5h infusion, 6 h",41 % baseline and 65 % baseline
same,Systolic blood pressure (mmHg),"0.85 mg/kg 0.5h infusion, 6 h",127 mmHg and 145 mmHg
same,ECG PR interval,"0.85 mg/kg 0.5h infusion, 8 h",71 ms and 58 ms
same,ECG QRS duration,"0.85 mg/kg 0.5h infusion, 8 h",36 ms
same,Left ventricular -dP/dt (mmHg/s),"0.85 mg/kg 0.5h infusion, 8 h",2042 mmHg/s and 3872 mmHg/s
same,QRS amplitude (% baseline),"0.85 mg/kg 0.5h infusion, 8 h",51 % baseline and 72 % baseline
same,Systolic blood pressure (mmHg),"0.85 mg/kg 0.5h infusion, 8 h",134 mmHg and 148 mmHg
same,ECG PR interval,"0.85 mg/kg 0.5h infusion, 12 h",82 ms and 61 ms
same,ECG QRS duration,"0.85 mg/kg 0.5h infusion, 12 h",35 ms
same,Left ventricular -dP/dt (mmHg/s),"0.85 mg/kg 0.5h infusion, 12 h",2433 mmHg/s and 4418 mmHg/s
same,QRS amplitude (% baseline),"0.85 mg/kg 0.5h infusion, 12 h",69 % baseline and 94 % baseline
same,Systolic blood pressure (mmHg),"0.85 mg/kg 0.5h infusion, 12 h",153 mmHg and 156 mmHg
same,ECG PR interval,"0.85 mg/kg 0.5h infusion, 16 h",77 ms
same,ECG QRS duration,"0.85 mg/kg 0.5h infusion, 16 h",34 ms
same,Left ventricular -dP/dt (mmHg/s),"0.85 mg/kg 0.5h infusion, 16 h",2409 mmHg/s and 4071 mmHg/s
same,QRS amplitude (% baseline),"0.85 mg/kg 0.5h infusion, 16 h",72 % baseline and 94 % baseline
same,Systolic blood pressure (mmHg),"0.85 mg/kg 0.5h infusion, 16 h",161 mmHg
same,ECG PR interval,"0.85 mg/kg 0.5h infusion, 22 h",91 ms and 94 ms
same,Left ventricular -dP/dt (mmHg/s),"0.85 mg/kg 0.5h infusion, 22 h",3086 mmHg/s and 4383 mmHg/s
same,QRS amplitude (% baseline),"0.85 mg/kg 0.5h infusion, 22 h",72 % baseline and 88 % baseline
same,Systolic blood pressure (mmHg),"0.85 mg/kg 0.5h infusion, 22 h",162 mmHg and 158 mmHg
same,ECG PR interval,[3],91 ms and 84 ms
same,ECG QRS duration,[3],36 ms
same,Left ventricular -dP/dt (mmHg/s),[3],4699 mmHg/s
same,QRS amplitude (% baseline),[3],96 % baseline
same,Systolic blood pressure (mmHg),[3],148 mmHg and 153 mmHg
same,ECG PR interval,"0.85 mg/kg 0.5h infusion, -1 h",103 ms and 85 ms
same,Left ventricular -dP/dt (mmHg/s),"0.85 mg/kg 0.5h infusion, -1 h",4441 mmHg/s
same,QRS amplitude (% baseline),"0.85 mg/kg 0.5h infusion, -1 h",94 % baseline
same,Systolic blood pressure (mmHg),"0.85 mg/kg 0.5h infusion, -1 h",143 mmHg and 157 mmHg
same,ECG PR interval,[4],85 ms
same,ECG QRS duration,[4],36 ms
same,Left ventricular -dP/dt (mmHg/s),[4],4911 mmHg/s
same,QRS amplitude (% baseline),[4],97 % baseline
same,Systolic blood pressure (mmHg),[4],167 mmHg
same,ECG QRS duration,"0.85 mg/kg 0.5h infusion, -[…]",36 ms
same,Left ventricular -dP/dt (mmHg/s),"0.85 mg/kg 0.5h infusion, -[…]",5734 mmHg/s
same,ECG QRS duration,"0.85 mg/kg 0.5h infusion, […]",33 ms
same,ECG PR interval,"0.85 mg/kg 3h infusion, 0.5 h",108 ms and 81 ms and 83 ms and 88 ms
same,ECG QRS duration,"0.85 mg/kg 3h infusion, 0.5 h",45 ms and 39 ms and 40 ms and 36 ms
same,Left ventricular -dP/dt (mmHg/s),"0.85 mg/kg 3h infusion, 0.5 h",3953 mmHg/s and 3684 mmHg/s and 3219 mmHg/s and 5001 mmHg/s
same,QRS amplitude (% baseline),"0.85 mg/kg 3h infusion, 0.5 h",99 % baseline and 100 % baseline and 101 % baseline
same,Systolic blood pressure (mmHg),"0.85 mg/kg 3h infusion, 0.5 h",153 mmHg and 151 mmHg and 169 mmHg and 175 mmHg
same,ECG PR interval,"0.85 mg/kg 3h infusion, 0.75 h",112 ms and 86 ms and 76 ms and 106 ms
same,ECG QRS duration,"0.85 mg/kg 3h infusion, 0.75 h",46 ms and 39 ms and 41 ms and 36 ms
same,Left ventricular -dP/dt (mmHg/s),"0.85 mg/kg 3h infusion, 0.75 h",3752 mmHg/s and 3727 mmHg/s and 3180 mmHg/s and 4454 mmHg/s
same,QRS amplitude (% baseline),"0.85 mg/kg 3h infusion, 0.75 h",101 % baseline and 100 % baseline and 97 % baseline
same,Systolic blood pressure (mmHg),"0.85 mg/kg 3h infusion, 0.75 h",162 mmHg and 154 mmHg and 161 mmHg and 165 mmHg
same,ECG PR interval,"0.85 mg/kg 3h infusion, 1 h",101 ms and 87 ms and 81 ms and 84 ms
same,ECG QRS duration,"0.85 mg/kg 3h infusion, 1 h",45 ms and 39 ms and 41 ms and 36 ms
same,Left ventricular -dP/dt (mmHg/s),"0.85 mg/kg 3h infusion, 1 h",4308 mmHg/s and 3741 mmHg/s and 3090 mmHg/s and 4711 mmHg/s
same,QRS amplitude (% baseline),"0.85 mg/kg 3h infusion, 1 h",101 % baseline and 100 % baseline and 96 % baseline and 99 % baseline
same,Systolic blood pressure (mmHg),"0.85 mg/kg 3h infusion, 1 h",166 mmHg and 151 mmHg and 163 mmHg and 167 mmHg
same,ECG PR interval,"0.85 mg/kg 3h infusion, 1.5 h",113 ms and 82 ms and 102 ms and 98 ms
same,ECG QRS duration,"0.85 mg/kg 3h infusion, 1.5 h",45 ms and 39 ms and 40 ms and 36 ms
same,Left ventricular -dP/dt (mmHg/s),"0.85 mg/kg 3h infusion, 1.5 h",3633 mmHg/s and 3504 mmHg/s and 2506 mmHg/s and 4720 mmHg/s
same,QRS amplitude (% baseline),"0.85 mg/kg 3h infusion, 1.5 h",97 % baseline and 100 % baseline and 104 % baseline
same,Systolic blood pressure (mmHg),"0.85 mg/kg 3h infusion, 1.5 h",157 mmHg and 147 mmHg and 135 mmHg and 166 mmHg
same,ECG PR interval,"0.85 mg/kg 3h infusion, 2 h",108 ms and 84 ms and 81 ms and 93 ms
same,ECG QRS duration,"0.85 mg/kg 3h infusion, 2 h",45 ms and 39 ms and 40 ms and 36 ms
same,Left ventricular -dP/dt (mmHg/s),"0.85 mg/kg 3h infusion, 2 h",3810 mmHg/s and 3536 mmHg/s and 3010 mmHg/s and 5044 mmHg/s
same,QRS amplitude (% baseline),"0.85 mg/kg 3h infusion, 2 h",96 % baseline and 100 % baseline and 94 % baseline and 101 % baseline
same,Systolic blood pressure (mmHg),"0.85 mg/kg 3h infusion, 2 h",150 mmHg and 147 mmHg and 154 mmHg and 174 mmHg
same,ECG PR interval,"0.85 mg/kg 3h infusion, 3 h",111 ms and 83 ms and 90 ms and 82 ms
same,ECG QRS duration,"0.85 mg/kg 3h infusion, 3 h",45 ms and 39 ms and 34 ms
same,Left ventricular -dP/dt (mmHg/s),"0.85 mg/kg 3h infusion, 3 h",3434 mmHg/s and 3501 mmHg/s and 3112 mmHg/s and 5003 mmHg/s
same,QRS amplitude (% baseline),"0.85 mg/kg 3h infusion, 3 h",90 % baseline and 72 % baseline and 85 % baseline
same,Systolic blood pressure (mmHg),"0.85 mg/kg 3h infusion, 3 h",157 mmHg and 146 mmHg and 158 mmHg and 168 mmHg
same,ECG PR interval,"0.85 mg/kg 3h infusion, 4 h",101 ms and 88 ms and 89 ms
same,ECG QRS duration,"0.85 mg/kg 3h infusion, 4 h",44 ms and 36 ms and 37 ms and 34 ms
same,Left ventricular -dP/dt (mmHg/s),"0.85 mg/kg 3h infusion, 4 h",3780 mmHg/s and 2987 mmHg/s and 2879 mmHg/s and 4676 mmHg/s
same,QRS amplitude (% baseline),"0.85 mg/kg 3h infusion, 4 h",85 % baseline and 69 % baseline and 64 % baseline and 74 % baseline
same,Systolic blood pressure (mmHg),"0.85 mg/kg 3h infusion, 4 h",155 mmHg and 123 mmHg and 142 mmHg and 159 mmHg
same,ECG PR interval,"0.85 mg/kg 3h infusion, 6 h",86 ms and 82 ms and 75 ms and 83 ms
same,ECG QRS duration,"0.85 mg/kg 3h infusion, 6 h",42 ms and 35 ms and 38 ms and 34 ms
same,QRS amplitude (% baseline),"0.85 mg/kg 3h infusion, 6 h",64 % baseline and 62 % baseline and 85 % baseline and 72 % baseline
same,Systolic blood pressure (mmHg),"0.85 mg/kg 3h infusion, 6 h",116 mmHg and 124 mmHg and 145 mmHg and 147 mmHg
same,ECG PR interval,"0.85 mg/kg 3h infusion, 8 h",86 ms and 95 ms and 74 ms and 70 ms
same,ECG QRS duration,"0.85 mg/kg 3h infusion, 8 h",43 ms and 34 ms and 40 ms and 35 ms

# From paper PMC7835349 (Communications Biology, 2021)
